{"source": "patent US4801612A", "about": "“Method of inhibiting inflammatory response” (Regents of the University of California, priority 1986, dated 1989)", "key": {"rat hind paw": {"system": "rat hind paw", "assay": "Heat-induced paw edema and protein extravasation (Evans blue), hind paw in 58° C. water for 5 min.", "type": "in vivo", "settings": "doses of Table I", "description": "Male albino rats weighing 200 to 280 g were anesthetized with sodium pentobarbital, 60 mg/kg i.p., and a right jugular vein cannulated for drug injections. Human/rat CRF (at various dosages described below) or saline, and Evans blue dye, 50 mg/kg, were injected intravenously 10 and 3 min., respectively, before immersion of the hind paw in 48° C. or 58° C. water for 5 min. The frequency of paw withdrawal from the water was then counted.\nAt the end of the exposure period, the animals were sacrificed and the dorsal skin, between the calcaneal process and phalanges, was removed from both paws, weighed, and each placed in 4 ml of formamide for 3 days at room temperature. The extracted Evans blue was quantified colorimetrically at 600 nm with readings from the untreated paw skin used as the blank values.\nProtein extravasation was measured by injecting a dye into a blood compartment of the animal. The dye binds to blood proteins and when the permeability of the tissue is increased by the heat, the dye leaks into the skin of the paw. The skin of the paw was excised, the dye extracted, and the amount of dye in the skin was measured to provide an index of the skin permeability changes that accompany the heat damage. […] In a manner analogous to that described above for administration of CRF, sauvagine was administered and paws of the anesthetized recipients exposed to water at 58° C. […]"}, "rat saphenous nerve": {"system": "rat saphenous nerve", "assay": "Neurogenic plasma extravasation (NPE) by antidromic stimulation of the rat saphenous nerve", "type": "in vivo", "settings": "injected shortly before electrical", "description": "Kiang and Wei, Eur. J. Pharmacol. 114, 111 (1985).\nTo determine if the CRF effect was secondary to release of pituitary or adrenal hormones (which involves ACTH in the pathway), the activity of CRF was examined in hypophysectomized and adrenalectomized rats. […] The surgical procedures associated with sham-operations and adrenalectomy made animals more sensitive to electrically stimulated NPE. […] Thus, the inhibitory activity of CRF appears to be independent of its stimulatory effects on pituitary and adrenal function and consequently appears to be independent of its previously known property of elevating ACTH levels. Nor does the inflammation inhibition of CRF appear to be associated with its previously known ability to stimulate β-endorphinactivities.\nAs has been known, CRF and related peptides produce hypotension in anesthetized and unanesthetized animals. […] Neither does the inflammation inhibition of the present invention appear to have any associaton with the hypotensive properties of CRF and its analogs."}}, "data": [{"compound": "CN1CC[C@]23c4c5ccc(O)c4O[C@H]2[C@@H](O)C=C[C@H]3[C@H]1C5.O=S(=O)(O)O", "note": "[morphine SO4, morphine sulfate, reference compound]", "values": [{"measurement": "inhibition of edema (in words)", "setting": "rat hind paw", "result": "neither morphine nor dexamethasone inhibits either edema"}, {"measurement": "inhibition of protein extravasation / dye leakage (in words)", "setting": "rat hind paw", "result": "neither morphine nor dexamethasone inhibits"}, {"measurement": "inhibition of NPE", "setting": "rat saphenous nerve", "result": "inhibits NPE"}]}]}
